Laboratory results reported in patent publication US20110015138A1 (GENUS ONCOLOGY, published 2011).
These are yes or no findings as the source states them, for the method shown. Some entries that bind do so weakly or less than the wild type. Where a sequence is shown, tags or fusion partners need not be part of it.

Sequences of proteins named here, by UniProt entry; tags and fusion partners are left off.
UniProt P40763: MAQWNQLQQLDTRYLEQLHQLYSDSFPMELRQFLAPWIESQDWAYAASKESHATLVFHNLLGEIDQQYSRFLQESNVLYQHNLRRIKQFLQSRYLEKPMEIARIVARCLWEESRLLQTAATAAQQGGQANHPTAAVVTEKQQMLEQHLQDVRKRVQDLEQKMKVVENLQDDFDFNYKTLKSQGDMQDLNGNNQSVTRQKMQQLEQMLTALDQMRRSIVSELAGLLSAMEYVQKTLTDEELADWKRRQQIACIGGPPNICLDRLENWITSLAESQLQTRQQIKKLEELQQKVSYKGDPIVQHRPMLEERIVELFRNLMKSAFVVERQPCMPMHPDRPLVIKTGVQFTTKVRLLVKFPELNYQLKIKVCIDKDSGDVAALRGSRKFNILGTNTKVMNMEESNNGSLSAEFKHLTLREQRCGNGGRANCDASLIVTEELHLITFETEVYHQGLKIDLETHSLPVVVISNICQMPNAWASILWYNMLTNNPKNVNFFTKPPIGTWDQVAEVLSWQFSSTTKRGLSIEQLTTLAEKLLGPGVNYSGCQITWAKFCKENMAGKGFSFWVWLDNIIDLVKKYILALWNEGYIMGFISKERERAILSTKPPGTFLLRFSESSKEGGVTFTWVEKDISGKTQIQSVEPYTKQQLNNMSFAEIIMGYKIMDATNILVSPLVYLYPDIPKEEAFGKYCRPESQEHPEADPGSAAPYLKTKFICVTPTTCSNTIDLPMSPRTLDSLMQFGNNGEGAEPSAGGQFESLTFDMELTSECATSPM
UniProt Q04206: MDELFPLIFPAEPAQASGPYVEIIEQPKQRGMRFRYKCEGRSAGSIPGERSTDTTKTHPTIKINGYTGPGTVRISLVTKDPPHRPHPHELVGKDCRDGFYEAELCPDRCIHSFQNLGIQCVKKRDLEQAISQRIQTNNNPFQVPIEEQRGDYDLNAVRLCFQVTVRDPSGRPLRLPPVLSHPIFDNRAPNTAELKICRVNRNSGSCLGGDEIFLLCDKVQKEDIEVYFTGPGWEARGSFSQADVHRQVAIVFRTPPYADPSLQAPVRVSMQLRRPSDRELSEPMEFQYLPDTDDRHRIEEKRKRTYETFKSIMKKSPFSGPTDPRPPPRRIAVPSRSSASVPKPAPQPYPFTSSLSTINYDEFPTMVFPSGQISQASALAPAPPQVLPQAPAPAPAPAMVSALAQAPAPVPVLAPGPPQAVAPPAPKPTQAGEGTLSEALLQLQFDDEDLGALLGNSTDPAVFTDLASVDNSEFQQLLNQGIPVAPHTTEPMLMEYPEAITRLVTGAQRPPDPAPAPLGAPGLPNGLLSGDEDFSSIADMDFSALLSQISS

What was measured:
[1] = target: purified recombinant STAT3 (UniProt P40763 1-770, limits assumed); experiment: GST pull-down of purified recombinant STAT3 with MUC1-CD deletion mutants
[2] = target: T1, purified recombinant NF-κB p65 (UniProt Q04206 1-551, limits assumed); experiment: GST pull-down of purified recombinant p65 with MUC1-CD deletion mutants
T1 construct: also called purified NF-κB p65

B1: GST-MUC1-CD(46-72) (peptide, not shown: a dimerising Fc or GST)
chain: YEKVSAGNGGSSLSYTNPAVAATSANL
- binding [1]: binds
- binding [2]: binds
